Experimental data taken from article PMC7800377.
Results are given in words; binding and its absence hold for the method and conditions named. Some entries that bind do so weakly or less than the wild type.

Sequences of proteins named here, by UniProt entry; tags and fusion partners are left off. Residues count along the entry.
UniProt Q9UH99, residues 522-717: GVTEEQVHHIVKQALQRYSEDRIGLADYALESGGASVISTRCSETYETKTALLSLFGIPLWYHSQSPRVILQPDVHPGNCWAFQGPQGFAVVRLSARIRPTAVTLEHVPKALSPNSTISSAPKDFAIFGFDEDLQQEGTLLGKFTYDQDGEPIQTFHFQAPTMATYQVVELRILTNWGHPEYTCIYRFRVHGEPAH
UniProt Q8NF91, residues 8769-8797: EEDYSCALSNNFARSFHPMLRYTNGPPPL

How the values were obtained:
[1] = biological target: GCN4-SUN2 (His6-GCN4 fusion of the SUN domain of human SUN2, residues 522–717), wild-type (human) (UniProt Q9UH99); experiment: SEC; GCN4-SUN and MBP-KASH co-expressed, purified by amylose affinity and ion exchange, whole elution pooled and run on analytical gel filtration (Superdex 200 Increase 10/300 GL) in 20 mM Tris pH 8.0, 150 mM KCl, 2 mM DTT; fractions by SDS-PAGE; both purified
[2] = biological target: MBP-KASH1 (His6-MBP fusion of the KASH domain of human Nesprin-1, residues 8769–8797) (human) (UniProt Q8NF91); experiment: SEC-MALS; co-expressed and co-purified samples at >1 mg/ml on Superdex 200 Increase 10/300 GL in 20 mM Tris pH 8.0, 150 mM KCl, 2 mM DTT; both purified

MBP-KASH1 (His6-MBP fusion of the KASH domain of human Nesprin-1, residues 8769–8797) (from UniProt Q8NF91 8769-8797) (domain or fragment)
binding [1]: binds | binding [2]: no binding
